From PubChem BioAssay AID493014 (National Center for Advancing Translational Sciences (NCATS), 2011)
In all, about 340,000 compounds went through this assay and about 170 (0.05%) were called active. Inconclusive results, whose numbers are uncertain, are shown with a selection of clear calls. Calls come from the whole dose curve; as a rule, active = well fitted inhibition curve with a large enough effect in the signal ratio, with a control signal flat (not every such curve was filed as active); inconclusive = small, poorly fitted or top-dose-only effect, or effect the other way, or a change in a side signal; inactive = flat fitted curve, though single readings scatter; the % refers to the signal ratio. Where the call is inconclusive, the potency comes from a doubtful curve fit.

test: qHTS Assay to Find Inhibitors of Chronic Active B-Cell Receptor Signaling; settings: ABC-DLBCL IkBa-CBG/CBR reporter, luminescence ratio (green luciferase fused to IkBa over red control in TMD8 lymphoma cells), 4 h; activity change, negative = inhibition: at 46.1 µM (top of the series);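 for activity change, negative = inhibition: plate controls were basal doxycycline-induced cells for no effect and cells given 10 µM MG132 for full effect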
Method in brief: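 Cell line TMD8 (human ABC DLBCL), stably expressing tet-inducible CBG68-IkBa fusion and CBR; IMDM/0.5% FBS; cpd up to 46 uM; dox induction, 4 h, 37C/5% CO2; dual luminescence; green/red ratio; MG132 control.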
Potency is the fitted concentration of half-maximal effect.

| Compound | Potency | activity change, negative = inhibition |
| --- | --- | --- |
| Fc1ccccc1N=C1NN=C(c2ccccc2)CS1 | inconclusive: 10 µM [falling, partial curve] |  |
| CN(Cc1nccs1)C(=O)c1cc(COc2cccc3cnccc23)on1 |  | inactive: -2.75% |
| COC(=O)COc1ccc(S(=O)(=O)Nc2ccc(NC(C)=O)cc2)cc1C |  | inconclusive: -0.901% |
| O=C(CCc1ccccc1F)N1CCN(c2ccccc2)CC1 |  | inconclusive: 7.71% |
| O=S(=O)(/C=C/c1ccccc1)N1CCc2ccccc2C1 |  | inconclusive: -9.53% |
| CC1(C)CC2CC(C)(CN2S(=O)(=O)c2cccc(C(=O)OCC(N)=O)c2)C1 (stereo not drawn) |  | inactive: -7.27% |
| CCOC(=O)C1=C(COC(=O)c2ccco2)NC(=O)NC1CC (stereo not drawn) |  | inactive: 3% |
| CCCCNC(=O)N1CCOCCOCCN(C(=O)NCCCC)CCOCCOCC1 | inconclusive: 1.84 µM [rising, partial curve] |  |
| Cc1cccc(-c2noc(-c3ccc4c(c3)OCO4)n2)c1 | inconclusive: 15.8 µM [falling, single point] |  |
| O=C(OCCN1CCCC1=O)c1cc(F)c(F)c(F)c1F |  | inconclusive: -2.38% |
| CC(=O)Nc1cccc(NC(=O)c2ccc(COc3ccccc3)cc2)c1 | inconclusive: 2.51 µM [falling, full curve, poor fit] |  |
| O=C(NCc1ccc2c(c1)OCO2)Nc1ccc2nsnc2c1 | inconclusive: 2.82 µM [falling, partial curve, poor fit] |  |
| O=C(O)c1ccc(NC(=O)c2cn(-c3ccccc3)nc2-c2ccc(Cl)cc2)cc1 |  | inconclusive: -14.7% |
| COc1ccc(S(=O)(=O)Nc2ccc(C)cc2)cc1N(C)S(=O)(=O)c1ccc(Cl)cc1 |  | inactive: 6.75% |
| Nc1nc(NCCc2ccccc2)nc(NCCO)c1[N+](=O)[O-] |  | inconclusive: 0.648% |
| CCc1ccccc1N(C)C(=O)Cc1c(C(=O)O)c(C)cn1C | inconclusive: 35.5 µM [falling, single point] |  |
| Cn1c(Cn2nnc3ccccc32)nnc1SCC(=O)N1c2ccccc2Sc2ccccc21 |  | inconclusive: -5.74% |
| Cc1ccc(S(=O)(=O)N2CCCN(C)c3nc4ccccc4nc32)cc1 |  | inactive: -0.471% |
| CCCCNC(=O)O[C@H]1C[C@@H]2CCN3C(=O)CCC[C@H]([C@H]1CC)[C@H]23 |  | inactive: -27.6% |
| CCSc1nnc2ccc(-c3ccc(OC)c(OC)c3)nn12 | active: 7.94 µM |  |
| O=S(=O)(c1cccc2cccnc12)N1CCOCC1 |  | inconclusive: -0.259% |
| C=CCCC(=O)Nc1nc(C)c(-c2csc(Nc3ccccc3OC)n2)s1 |  | inconclusive: -6.89% |
| COc1cc(/C=N\NC(=O)c2ccc(C)nc2)ccc1OC(=O)c1ccco1 |  | inconclusive: 6.71% |
| COc1cc(/C=N/Nc2cccc(C)c2)ccc1OC(=O)c1cccs1 |  | inactive: -0.994% |
| CCOC(=O)C1CCN(C(=O)COC(=O)c2oc3ccccc3c2C)CC1 |  | inconclusive: -3.73% |
| O=C(Nc1cccc([N+](=O)[O-])c1)c1cc(S(=O)(=O)Nc2ccccn2)ccc1Cl |  | inconclusive: 2.36% |

| Compound | Potency | activity change, negative = inhibition |
| --- | --- | --- |
| CC(=O)C1=C(c2ccccc2)OC(N)=C(C#N)C1c1ccccc1C (stereo not drawn) |  | inactive: 7.4% |
| COc1ccccc1CNC(=O)c1oc2ccc(S(=O)(=O)N3CCCCC3)cc2c1C |  | inactive: -1.38% |
| O=C(O)CCCCCN1C(=O)/C(=C\c2ccncc2)SC1=S | inconclusive: 5.8 µM [rising, full curve] |  |
| O=C(NCc1ccco1)c1cccc(-c2nnc(-c3ccccc3)o2)c1 | inconclusive: 3.66 µM [falling, partial curve] |  |
| CN1C(=O)CSC1=Nc1ccc(F)cc1 | inconclusive: 35.5 µM [falling, partial curve, poor fit] |  |
| NC(=S)N=Nc1c(O)n(CCCl)c2ccccc12 | inconclusive: 17.8 µM [cytotoxic, partial curve] |  |
| CCOCCCN1C(=O)CN(C2CCCCCC2)C(=O)C1c1ccc(OC(C)C)c(OC)c1 (stereo not drawn) |  | inactive: 1.66% |
| CCOC(=O)N1CCC(N2C(=O)c3ccccc3C2Nc2cc(Cl)c(OC)cc2OC)CC1 (stereo not drawn) |  | inconclusive: 6.24% |
| O=C(NNc1c(Cl)cc(Cl)cc1Cl)c1cccc([N+](=O)[O-])c1 |  | inconclusive: 9.97% |
| CCCCCNC(=O)c1cc(S(=O)(=O)N2CCCC2)ccc1F |  | inconclusive: 0.411% |
| COc1cccc(CN2C(=O)C(C)N(C(=O)c3c(F)cccc3F)c3ccccc32)c1 (stereo not drawn) | inconclusive: 35.5 µM [falling, partial curve, poor fit] |  |
| O=C(O)COc1ccccc1C1C2C(=O)N(c3ccccc3)C(=O)C2ON1c1ccccc1 (stereo not drawn) |  | inconclusive: -11.9% |
| CC(C)Cn1cc(C(=O)NCCCN2CCCC2=O)c2c3ccccc3n(C)c2c1=O |  | inconclusive: 6.41% |
| O=C(COC(=O)c1ccccc1)c1ccc(Br)cc1 |  | inconclusive: -1.38% |
| Cc1nc2nc(-c3ccco3)[nH]n2c(=O)c1C | inconclusive: 29.1 µM [falling, single point] |  |
| CCn1cc(Br)c(C(=O)Nc2ccc(Cl)cc2Cl)n1 | inconclusive: 3.26 µM [rising, full curve, poor fit] |  |
| CS(=O)(=O)N1CCN(C(=O)c2cc(-c3cccnc3)nc3ccc(Br)cc23)CC1 |  | inactive: -2.76% |
| CC(SCc1ccccc1)C(=O)Nc1ccc(F)cc1 (stereo not drawn) | inconclusive: 17.8 µM [falling, partial curve] |  |
| COC(=O)COc1ccc(S(=O)(=O)Nc2ccccc2C(=O)OC)cc1 |  | inconclusive: -2.96% |
| Cc1nn(-c2ccccc2)c(C)c1C(=O)OCC(=O)Nc1ccccc1F | inconclusive: 4.11 µM [falling, partial curve, poor fit] |  |
| O=C(Nc1ccccc1N1CCOCC1)c1ccccc1[N+](=O)[O-] |  | inactive: -0.821% |
| COCCCNC(=O)c1ccccc1N(Cc1ccccc1)S(=O)(=O)c1ccc(OC)cc1 |  | inactive: -0.0892% |
| CCc1cccc2c1NC1(CCCC1)CC2C (stereo not drawn) |  | inconclusive: 6.26% |
| O/C(=C\c1ccc2ccccc2n1)c1ccncc1 | inconclusive: 20.6 µM [falling, single point] |  |
| COc1ccc(-c2cc(C(=O)NC3CCCC3)no2)cc1 | inconclusive: 5.62 µM [falling, full curve, poor fit] |  |
| C=CCNC(=O)C(=O)NN=C1CCN(C)CC1 | inconclusive: 0.461 µM [rising, full curve] |  |

| Compound | Potency | activity change, negative = inhibition |
| --- | --- | --- |
| O=C(Nc1ccc2c(c1)OCCO2)c1cccc(Br)c1 | inconclusive: 17.8 µM [falling, single point] |  |
| COc1ccc(-n2ncc3c(NCc4ccc5c(c4)OCO5)ncnc32)cc1 |  | inconclusive: 5.97% |
| CCc1ccccc1NC(=O)CNC(=O)c1n[nH]c(=O)c2ccccc12 |  | inconclusive: -20.7% |
| C=CCn1c(SCC(=O)NCCCC)nc2scc(-c3ccco3)c2c1=O |  | inconclusive: 28.4% |
| CN(C)c1ccc(Nc2nc(-c3cccnc3)cs2)cc1 |  | inconclusive: -10.1% |
| CN(C)S(=O)(=O)c1ccc(Cl)c(C(=O)Nc2nc3ccccc3[nH]2)c1 |  | inconclusive: 8.36% |
| CCc1nnc(NC(=O)c2ccc(OC)cc2)s1 | inconclusive: 17.8 µM [falling, single point] |  |
| CC1CCCCC1NC(=O)C1CCC(CNS(=O)(=O)c2ccccc2)CC1 (stereo not drawn) |  | inactive: -2.61% |
| CC1=NN(C(=O)CSCc2ccccc2)C(O)(c2ccc(Cl)cc2)C1 (stereo not drawn) | inconclusive: 22.4 µM [falling, partial curve, poor fit] |  |
| COc1cc(/C=C/C(=O)OCC(=O)NC(=O)NC(C)(C)C)ccc1O |  | inconclusive: -17.3% |
| CCC(CCC(=O)Nc1cccc([N+](=O)[O-])c1)C(=O)O (stereo not drawn) |  | inconclusive: 1.14% |
| CN1Cc2c(N3CCOCC3)nc3sc(C#N)c(N)c3c2CC1(C)C | inconclusive: 20 µM [falling, partial curve, poor fit] |  |
| Cc1ccccc1-c1nc(CN2CCC(C(=O)NC3CC3)CC2)c(C)o1 |  | inactive: -7.73% |
| CC(C)(C)NC(=O)C(c1cccs1)N(Cc1ccc(F)cc1)C(=O)c1csnn1 (stereo not drawn) |  | inconclusive: -14.7% |
| N#Cc1ccccc1/C=N/Nc1nc(-c2ccccc2)c2cc(Br)ccc2n1 |  | inconclusive: 3.52% |
| COc1ccc(C(=O)Nc2ccccc2C(=O)N/N=C/c2ccccc2OC)cc1 | inconclusive: 22.4 µM [falling, partial curve] |  |
| CN1Cc2c(N3CCOCC3)nc(SCc3ccccc3)c(C#N)c2CC1(C)C | inconclusive: 35.5 µM [falling, partial curve, poor fit] |  |
| CC(=O)Nc1cccc(NC(=O)CN2c3cccc4cccc(c34)S2(=O)=O)c1 | inconclusive: 32.6 µM [falling, partial curve, poor fit] |  |
| COC(=O)c1ccccc1NC(=O)Cc1nc(-c2ccccc2)sc1-c1ccc(C)cc1 |  | inconclusive: 4.06% |
| COC(=O)c1ccc(CSc2cc(C)c3ccccc3n2)o1 |  | inconclusive: 5.34% |
| CC1=CN2C(=N)/C(=C/c3ccc(Sc4ccc(Cl)cc4)o3)C(=O)N=C2S1 |  | inactive: 5.41% |
| S=c1[nH]nc(C2CCCCC2)n1/N=C/C(Cl)=C\c1ccccc1 | inconclusive: 23.1 µM [falling, partial curve] |  |
| O=C(/C=C\c1ccccc1)Oc1cccc2cccnc12 | inconclusive: 25.1 µM [cytotoxic, partial curve] |  |
| c1ccc(CCN2CN=C(Nc3nc4ccccc4o3)NC2)cc1 |  | inconclusive: 4.42% |
| O=C(COC(=O)c1ccc(Cl)c(S(=O)(=O)NCc2ccccc2)c1)NC1CC1 |  | inactive: -1.4% |
| COc1ccc(-n2nnc3c(SCC(=O)NCc4ccco4)ncnc32)cc1 | inconclusive: 20 µM [falling, single point] |  |

Looked up by structure from above, 5 records:

| Compound | Potency | activity change, negative = inhibition |
| --- | --- | --- |
| CC(C)(C)NC(=O)C(c1cccs1)N(Cc1ccc(F)cc1)C(=O)c1csnn1 (stereo not drawn) |  | inconclusive: -14.7% |
| CCc1ccccc1NC(=O)CNC(=O)c1n[nH]c(=O)c2ccccc12 |  | inconclusive: -20.7% |
| CC1CCCCC1NC(=O)C1CCC(CNS(=O)(=O)c2ccccc2)CC1 (stereo not drawn) |  | inactive: -2.61% |
| S=c1[nH]nc(C2CCCCC2)n1/N=C/C(Cl)=C\c1ccccc1 | inconclusive: 23.1 µM [falling, partial curve] |  |
| CCC(CCC(=O)Nc1cccc([N+](=O)[O-])c1)C(=O)O (stereo not drawn) |  | inconclusive: 1.14% |
